# In patent US20240299290A1, “METHODS AND COMPOSITIONS FOR RAPID DELIVERY OF ANTI-SEIZURE THERAPEUTICS” (Neurelis, Inc., priority 2021, published 2024):
# Read-outs that look alike come from different tables or passages of the source.
# How the values were obtained:
# [1] = cited from earlier work; for mean Cmax / median Tmax: healthy volunteers (Ivaturi 2009)
# [2] = test system: seizure; assay: Rapid onset of therapeutic effect: seizure cessation measured by EEG after intranasal diazepam; details: 15 mg intranasal, dosed during seizure; individual subjects
# [3] = intranasal 4 mg in polyethylene glycol 300 (Lindhardt 2001)
# [4] = intranasal 7 mg in polyethylene glycol 300 (Lindhardt 2001)
structure (smiles),measurement,setting,value
"CN1C(=O)CN=C(c2ccccc2)c2cc(Cl)ccc21 [diazepam, 7-chloro-1,3-dihydro-1-methyl-5-phenyl-2H-1,4-benzodiazepin-2-one]",AUC compared to rectally administered diazepam (DIASTAT),intranasal 15 mg,slightly lower
same,AUC compared to rectally administered diazepam (DIASTAT),intranasal 20 mg,comparable AUC values
same,Tmax,[1]; intranasal 2 mg dose of 20 mg/mL diazepam solution in 5% glycofurol in polyethylene glycol 200 (Gizurarson and Bechgaard 1991),18 ± 11 min
same,Cmax,[1]; [3],0.099 µg/mL
same,Tmax,[1]; [3],18 min
same,mean Cmax,[1]; intranasal 5 mg,0.1343 ± 0.062 µg/mL
same,median Tmax,[1]; intranasal 5 mg,20 min
same,Cmax,[1]; [4],0.17 µg/mL
same,Tmax,[1]; [4],42 min
same,mean Cmax,[1]; intranasal 10 mg,0.2476 ± 0.061 µg/mL
same,median Tmax,[1]; intranasal 10 mg,30 min
same,Time to Seizure Cessation,[2],2 min
